Earlier results in US20240342187A1, “USE OF NEP INHIBITORS FOR THE TREATMENT OF GASTROINTESTINAL SPHINCTER DISORDERS” (Curtails LLC, priority 2021, published 2024).
For at least one compound, name, drawing or mass did not settle the structure.

Conditions: sublingual; predominantly mild or moderate disease

## COC(=O)C1=C(C)NC(C)=C(C(=O)OC)C1c1ccccc1[N+](=O)[O-] [nifedipine]
  people with improved outcomes / symptoms: up to 75%
